Holding throughout (assay): SEC
Assay [1] concerns the target ScSth1p Trp1338Gln mutant bromodomain (S. cerevisiae) (UniProt P32597).
Assay [2] has as its target ScSth1p Tyr1290Ala/Asn1333Ala mutant bromodomain (S. cerevisiae) (UniProt P32597).
For assay [3], the target named is ScSth1p Ser1276Glu mutant bromodomain (S. cerevisiae) (UniProt P32597).
For assay [4], the target named is ScSth1p bromodomain (residues 1250-1359), wild type (S. cerevisiae) (UniProt P32597).

Chains of the proteins cited; added tags and fusions are not shown. Lines headed by an entry give the natural chain unless they say otherwise; changes in a name come on top. Residues count along the entry.
UniProt P32597, 1250-1359: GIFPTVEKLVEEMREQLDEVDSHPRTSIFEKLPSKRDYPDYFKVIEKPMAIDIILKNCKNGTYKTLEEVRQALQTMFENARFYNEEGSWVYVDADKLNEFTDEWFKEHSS

Drawing on article doi:10.1101/559005, this text covers binding for 4 substances.

Results are given in words; binding and its absence hold for the method and conditions named.

With “ScSth1p Trp1338Gln mutant bromodomain (from UniProt P32597 1250-1359) (domain or fragment)”, in assay [1], the binding result was “no binding”. “ScSth1p Tyr1290Ala/Asn1333Ala mutant bromodomain (from UniProt P32597 1250-1359) (domain or fragment)”: the binding result in assay [2] is on record as “no binding”.

In the case of “ScSth1p Ser1276Glu mutant bromodomain (from UniProt P32597 1250-1359) (domain or fragment)”, the binding result in assay [3] is reported as “no binding”. “ScSth1p bromodomain (residues 1250-1359), wild type (from UniProt P32597 1250-1359) (domain or fragment)”: the binding entry in assay [4] was “no binding”.
